Data on 42 sequences can be found in PMC7819943, “Rice protein-binding microarrays: a tool to detect cis-acting elements near promoter regions in rice”.

By UniProt entry, the sequences of proteins in these tests, tags left out.
UniProt Q0JBA9, entry or part of it: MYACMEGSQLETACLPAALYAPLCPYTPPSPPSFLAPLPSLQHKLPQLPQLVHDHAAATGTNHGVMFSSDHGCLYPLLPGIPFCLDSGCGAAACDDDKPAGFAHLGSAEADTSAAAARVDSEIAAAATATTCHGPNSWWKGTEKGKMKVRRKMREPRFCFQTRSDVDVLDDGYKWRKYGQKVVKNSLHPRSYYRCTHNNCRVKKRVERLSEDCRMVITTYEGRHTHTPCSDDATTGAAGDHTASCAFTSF

The other results are listed elsewhere or left out.

The target of this experiment is OsWRKY34 (Oryza sativa, UniProt Q0JBA9 1-250). Nature of the experiment: protein-binding microarray (RPBM); PBS, 2% BSA, 51.3 ng/ul salmon testes DNA, 50 uM zinc acetate, 200 nM TF, 25 C, 1 h; high values mean tight binding. Particulars: protein: recombinant; tags: N-terminal polyhistidine and DsRed monomer fusion (pET32a); label: CyDye5-dUTP incorporated in the synthesized complementary strand; 3' TTTTT single-stranded linker to array surface; dsDNA, one strand shown. A digest of the protocol:
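Per-feature fluorescence intensity (arbitrary units), read on an Axon 4000B scanner, is the binding signal. Transcription factors carrying an N-terminal polyhistidine tag and DsRed fusion were expressed in E. coli BL21-CodonPlus and purified on Ni–NTA. A custom Agilent array, made double-stranded by primer extension with Cy5-dUTP and blocked with 2% BSA, was incubated with 200 nM protein in PBS, 2% BSA, salmon testes DNA and 50 µM zinc acetate at 25 °C for 1 h and then washed.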
For the sequence “ATTCACATGCTTCAACCTGTGCGACGCCCATGACGGCCAACGGAGTCACCTAGTGCAG”, the binding signal was 10500 fluorescence intensity (a.u.).

“CCATCGATTACAATAATTTTTTTCCATACCTTACCCATCTCGGAGTCACCTAGTGCAG”: the binding signal was 8340 fluorescence intensity (a.u.).

Regarding “GTCTGGTATCTGGTTTCAGGGGCGGAGCTATGTATTAGGGCGGAGTCACCTAGTGCAG”, the binding signal is 10100 fluorescence intensity (a.u.).

As to “TGTTTGCTGCTGCTGCTGCTCTGCTTTTCTCTTTTTTCTTCGGAGTCACCTAGTGCAG”, the binding signal is 9490 fluorescence intensity (a.u.).

Take “TTTATTTTCCAGTTCTTGTATAAGACTCTGTTATTGTTCTCGGAGTCACCTAGTGCAG”: the binding signal is 10000 fluorescence intensity (a.u.).

Take “TTGTATGGTCCTTGATATCTGCAGTTGGAATATTTTGTTTCGGAGTCACCTAGTGCAG”: the binding signal was 9660 fluorescence intensity (a.u.).

“CACCTTGATCTGTGTCTCAGCTCTCCTATCTTCTTTGCTCCGGAGTCACCTAGTGCAG”: the binding signal was 8850 fluorescence intensity (a.u.).

In the case of “AATCCTGAATGCTGCATACCATCATGTCTCGTTCACGCTGCGGAGTCACCTAGTGCAG”, the binding signal is 12300 fluorescence intensity (a.u.).

Regarding “CTCATCTCCCATCCATGGCTGCTCTCTACCTCGTTTCCATCGGAGTCACCTAGTGCAG”, the binding signal was 8350 fluorescence intensity (a.u.).

For the sequence “CCGCCCTTTTGACCCAACCCCACCGACCCAACGAACGCGACGGAGTCACCTAGTGCAG”, the binding signal is 9800 fluorescence intensity (a.u.).

Take “ACTCACTAGTGATCAGTACTGCTATGTTGCTTTCAATAAACGGAGTCACCTAGTGCAG”: the binding signal was 9530 fluorescence intensity (a.u.).

Turning to “GCAGCTCCCTCCACCGCGCCACCCATCCATCGCCAGCCATCGGAGTCACCTAGTGCAG”, the binding signal was 8170 fluorescence intensity (a.u.).

With “TTGTCACTGCCTGTACGGGGCCCTTGTTTTTTGGTTATAACGGAGTCACCTAGTGCAG”, the binding signal was 8520 fluorescence intensity (a.u.).

On to “ATTATTATTTATTTTGTTTATCATTTGCTTTATTATCAAACGGAGTCACCTAGTGCAG”, for which the binding signal is 8140 fluorescence intensity (a.u.).

Take “AACAGCGACGGCCATTACCTTACCCGGTTCAATTCAACGCCGGAGTCACCTAGTGCAG”: the binding signal is 9660 fluorescence intensity (a.u.).

For “TCTCCGCCTAAACATAGCTATCTCCACTCCTACTTCCCGGCGGAGTCACCTAGTGCAG”, the binding signal was 10300 fluorescence intensity (a.u.).

Turning to “TGATTTGTGTTACCATGACGTCTGTCTATTTCCTAGTCATCGGAGTCACCTAGTGCAG”, the binding signal was 10900 fluorescence intensity (a.u.).

Turning to “GATTTCTCCTAGGTCTCGGATTTCATCTTGTATACACTACCGGAGTCACCTAGTGCAG”, the binding signal is 10200 fluorescence intensity (a.u.).

Consider “CGCTGCAGCGGTGTGCCTTACATTTCTTGCTATCATTTTTCGGAGTCACCTAGTGCAG”, for which the binding signal is 13500 fluorescence intensity (a.u.).

On to “GCTATTCTACAGTTTTCTTATCTATGCAGTTCTTTAAGAACGGAGTCACCTAGTGCAG”, for which the binding signal was 8250 fluorescence intensity (a.u.).

Turning to “AGCTATATTACTCACCTTCTCTCTTTAAGCCTGTCTAGTACGGAGTCACCTAGTGCAG”, the binding signal was 10300 fluorescence intensity (a.u.).

“TCCCCAGCCGCCGCCGGAACCCGAGACCACCCTTGACGGCCGGAGTCACCTAGTGCAG”: the binding signal is 8060 fluorescence intensity (a.u.).

“ACCTGCGTAGTACCCTAAGGTCCTGAGTTCAAATCTCCTACGGAGTCACCTAGTGCAG”: the binding signal was 8110 fluorescence intensity (a.u.).

Consider “ACCGCCTTTTGTTTTTCTCTCTCGTTTCGTGTGCGCCGCGCGGAGTCACCTAGTGCAG”, for which the binding signal is 10100 fluorescence intensity (a.u.).

As to “TCCATCCATATCGTCTACTCCTTGCTCCATGCCTCCATCACGGAGTCACCTAGTGCAG”, the binding signal is 8710 fluorescence intensity (a.u.).

With “GTGTCCATGTGGTTATATGATGATTAATTTGAGAAATTTCCGGAGTCACCTAGTGCAG”, the binding signal was 9800 fluorescence intensity (a.u.).

“TGTTTTCTCTCTCTGCTACTTGCTAGTGGGACGGGGATCGCGGAGTCACCTAGTGCAG”: the binding signal is 8050 fluorescence intensity (a.u.).

As to “ACTTATTCACCAACACTGTCTTCTCAACCAATCACAACCCCGGAGTCACCTAGTGCAG”, the binding signal was 8610 fluorescence intensity (a.u.).

As for “TACCACCAACACACCACTCGTCTCATTTCTGGCCTATATACGGAGTCACCTAGTGCAG”, the binding signal is 15600 fluorescence intensity (a.u.).

Take “ATGTCTCTCGCAGTCGCTGTCAGTCTGTCTTGTGTCCGCACGGAGTCACCTAGTGCAG”: the binding signal was 13700 fluorescence intensity (a.u.).

With “TTTTTTTTAATTACACGGCAAATGCACACATATATACACCCGGAGTCACCTAGTGCAG”, the binding signal is 8320 fluorescence intensity (a.u.).

In the case of “TCTTCTCCCTTTCTCTCTCTCTCTCTCACTTTTCTCAGCCCGGAGTCACCTAGTGCAG”, the binding signal was 8410 fluorescence intensity (a.u.).

For “AATGAATAGCATTGAGCTTCATCCCTGTTCGTTTCTCACGCGGAGTCACCTAGTGCAG”, the binding signal is 8850 fluorescence intensity (a.u.).

For “GTCAGACAGCTTGTTGCCTTGTTGTTGCTGAGTTTCTCTCCGGAGTCACCTAGTGCAG”, the binding signal was 9460 fluorescence intensity (a.u.).

Regarding “TTTCGTGCATTTCTTACATTTTCTCCATGAATATAACGCTCGGAGTCACCTAGTGCAG”, the binding signal is 9860 fluorescence intensity (a.u.).

For the sequence “CCTTGTGATCGTCTGATCTCTTCTTTGTAGTTGCCTCCTCCGGAGTCACCTAGTGCAG”, the binding signal was 9080 fluorescence intensity (a.u.).

As for “CGGCTCACGGCTCGCCCGCTCTCGTTCTCCACCTTATCACCGGAGTCACCTAGTGCAG”, the binding signal is 8160 fluorescence intensity (a.u.).

Regarding “AAAAAGAGTTCTCTTCTTCACTTCTACTCTTCACAACTTTCGGAGTCACCTAGTGCAG”, the binding signal is 9410 fluorescence intensity (a.u.).

As for “GGGAAATCCCTCGTGGGGAACAGGTTTGACCGACCTTTCACGGAGTCACCTAGTGCAG”, the binding signal was 8220 fluorescence intensity (a.u.).

Consider “CGTCCGTCCACCGACCCAGCAGTGCACCTCCCGTTCGCCTCGGAGTCACCTAGTGCAG”, for which the binding signal is 8210 fluorescence intensity (a.u.).

In the case of “TGTTCTTTTTCTCTCACATGCCACCTCCTACCCAATCATGCGGAGTCACCTAGTGCAG”, the binding signal was 8720 fluorescence intensity (a.u.).

“CTGTGGTGGTGTGCATACGGGTTGGGGTGGAGGGCTGCTCCGGAGTCACCTAGTGCAG”: the binding signal was 17900 fluorescence intensity (a.u.).
